According to the supplement of paper PMC10849652:
The list shows a part of the results.

Protein sequences, listed by entry. Tags and fused reporters are not part of them. Lines headed by an entry give the natural chain unless they say otherwise; changes in a name come on top.
UniProt Q66GS9: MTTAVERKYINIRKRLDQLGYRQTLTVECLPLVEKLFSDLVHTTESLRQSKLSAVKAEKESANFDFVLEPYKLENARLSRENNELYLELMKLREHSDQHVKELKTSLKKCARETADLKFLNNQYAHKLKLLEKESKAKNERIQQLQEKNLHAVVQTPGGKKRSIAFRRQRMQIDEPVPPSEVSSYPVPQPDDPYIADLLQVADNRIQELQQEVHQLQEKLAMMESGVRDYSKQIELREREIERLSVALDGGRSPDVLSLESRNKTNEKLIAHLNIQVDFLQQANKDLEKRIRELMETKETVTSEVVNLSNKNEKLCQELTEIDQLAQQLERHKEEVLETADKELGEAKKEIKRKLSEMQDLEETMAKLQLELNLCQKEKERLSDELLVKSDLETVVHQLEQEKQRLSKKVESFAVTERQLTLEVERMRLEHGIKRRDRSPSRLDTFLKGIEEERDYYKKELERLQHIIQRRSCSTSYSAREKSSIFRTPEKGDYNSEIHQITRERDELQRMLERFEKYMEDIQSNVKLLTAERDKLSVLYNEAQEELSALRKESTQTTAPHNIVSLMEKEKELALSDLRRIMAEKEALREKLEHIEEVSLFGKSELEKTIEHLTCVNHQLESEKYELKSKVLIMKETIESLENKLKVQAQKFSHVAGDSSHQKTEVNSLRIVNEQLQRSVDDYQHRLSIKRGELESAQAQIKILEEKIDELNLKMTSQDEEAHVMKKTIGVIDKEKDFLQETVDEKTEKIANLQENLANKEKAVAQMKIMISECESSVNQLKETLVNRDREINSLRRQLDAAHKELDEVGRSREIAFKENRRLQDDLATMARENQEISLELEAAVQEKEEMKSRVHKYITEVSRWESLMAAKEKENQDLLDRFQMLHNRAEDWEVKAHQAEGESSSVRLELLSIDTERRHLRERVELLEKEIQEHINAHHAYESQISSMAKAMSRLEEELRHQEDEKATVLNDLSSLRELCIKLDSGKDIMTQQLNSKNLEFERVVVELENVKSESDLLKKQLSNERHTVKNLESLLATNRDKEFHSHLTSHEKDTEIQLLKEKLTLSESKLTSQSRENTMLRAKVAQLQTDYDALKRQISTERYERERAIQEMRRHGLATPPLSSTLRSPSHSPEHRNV
UniProt Q6ZMG9: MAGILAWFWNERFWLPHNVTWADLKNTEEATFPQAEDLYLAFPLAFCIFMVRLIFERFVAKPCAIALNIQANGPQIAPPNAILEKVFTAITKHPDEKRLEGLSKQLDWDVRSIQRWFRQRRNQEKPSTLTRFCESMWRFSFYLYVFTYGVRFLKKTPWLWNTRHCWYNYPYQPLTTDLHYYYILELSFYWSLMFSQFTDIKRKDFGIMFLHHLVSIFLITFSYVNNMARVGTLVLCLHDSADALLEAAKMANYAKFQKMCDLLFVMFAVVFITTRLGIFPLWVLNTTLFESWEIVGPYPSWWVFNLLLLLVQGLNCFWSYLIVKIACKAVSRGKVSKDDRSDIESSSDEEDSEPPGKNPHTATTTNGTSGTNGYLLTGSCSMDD
UniProt Q16543: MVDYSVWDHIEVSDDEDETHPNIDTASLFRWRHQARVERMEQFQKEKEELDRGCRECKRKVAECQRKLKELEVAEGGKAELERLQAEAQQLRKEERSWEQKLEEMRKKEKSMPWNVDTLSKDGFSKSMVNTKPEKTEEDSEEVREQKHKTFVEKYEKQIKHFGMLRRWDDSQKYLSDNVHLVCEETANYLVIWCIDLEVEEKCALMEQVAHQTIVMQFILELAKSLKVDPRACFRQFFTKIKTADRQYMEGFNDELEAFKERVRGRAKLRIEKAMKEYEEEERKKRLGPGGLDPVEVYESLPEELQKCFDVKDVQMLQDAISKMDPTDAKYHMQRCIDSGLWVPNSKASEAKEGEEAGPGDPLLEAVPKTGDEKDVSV
UniProt Q71F23: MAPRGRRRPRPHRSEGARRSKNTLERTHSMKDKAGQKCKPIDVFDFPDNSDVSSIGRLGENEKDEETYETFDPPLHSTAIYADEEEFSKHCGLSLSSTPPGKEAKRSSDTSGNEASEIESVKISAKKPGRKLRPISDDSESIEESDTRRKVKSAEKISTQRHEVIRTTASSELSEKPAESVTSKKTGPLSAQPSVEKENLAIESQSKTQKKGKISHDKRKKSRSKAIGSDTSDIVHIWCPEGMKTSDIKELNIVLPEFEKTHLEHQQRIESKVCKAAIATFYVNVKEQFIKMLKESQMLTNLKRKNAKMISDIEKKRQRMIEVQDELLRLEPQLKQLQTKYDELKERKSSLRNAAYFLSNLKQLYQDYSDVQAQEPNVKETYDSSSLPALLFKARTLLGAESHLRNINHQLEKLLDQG
UniProt Q8IWY9: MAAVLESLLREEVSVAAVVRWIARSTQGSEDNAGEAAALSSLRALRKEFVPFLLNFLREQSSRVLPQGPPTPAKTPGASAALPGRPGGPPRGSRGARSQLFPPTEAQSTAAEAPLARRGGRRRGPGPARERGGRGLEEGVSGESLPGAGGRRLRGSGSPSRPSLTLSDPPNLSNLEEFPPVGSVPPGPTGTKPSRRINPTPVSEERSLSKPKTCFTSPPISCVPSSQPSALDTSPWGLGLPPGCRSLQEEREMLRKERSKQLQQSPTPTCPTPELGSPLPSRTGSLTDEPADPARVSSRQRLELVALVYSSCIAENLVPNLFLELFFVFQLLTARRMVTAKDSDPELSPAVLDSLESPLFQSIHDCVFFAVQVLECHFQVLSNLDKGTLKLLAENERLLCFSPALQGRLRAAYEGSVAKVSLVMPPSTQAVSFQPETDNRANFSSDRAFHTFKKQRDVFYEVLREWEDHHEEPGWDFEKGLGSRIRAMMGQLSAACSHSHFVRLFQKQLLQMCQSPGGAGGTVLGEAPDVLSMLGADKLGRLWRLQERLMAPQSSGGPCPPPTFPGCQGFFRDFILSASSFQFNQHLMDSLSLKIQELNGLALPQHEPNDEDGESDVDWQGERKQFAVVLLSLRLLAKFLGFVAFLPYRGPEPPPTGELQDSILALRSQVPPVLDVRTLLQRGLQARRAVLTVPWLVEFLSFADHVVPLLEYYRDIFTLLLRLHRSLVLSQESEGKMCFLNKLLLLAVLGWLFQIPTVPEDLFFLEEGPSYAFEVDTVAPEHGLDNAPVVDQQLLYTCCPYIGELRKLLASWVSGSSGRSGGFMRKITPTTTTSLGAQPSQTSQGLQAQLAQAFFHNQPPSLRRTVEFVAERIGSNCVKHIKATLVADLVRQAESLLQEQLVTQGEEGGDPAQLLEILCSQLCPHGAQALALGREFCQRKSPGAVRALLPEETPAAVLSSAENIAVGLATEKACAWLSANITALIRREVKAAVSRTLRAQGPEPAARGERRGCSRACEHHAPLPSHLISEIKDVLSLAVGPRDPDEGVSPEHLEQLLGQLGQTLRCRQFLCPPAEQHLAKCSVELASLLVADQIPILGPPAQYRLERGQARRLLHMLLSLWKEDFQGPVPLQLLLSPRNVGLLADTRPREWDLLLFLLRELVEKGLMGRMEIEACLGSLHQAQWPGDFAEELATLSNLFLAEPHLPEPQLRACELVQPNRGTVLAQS
UniProt Q12834, whole entry, looked up: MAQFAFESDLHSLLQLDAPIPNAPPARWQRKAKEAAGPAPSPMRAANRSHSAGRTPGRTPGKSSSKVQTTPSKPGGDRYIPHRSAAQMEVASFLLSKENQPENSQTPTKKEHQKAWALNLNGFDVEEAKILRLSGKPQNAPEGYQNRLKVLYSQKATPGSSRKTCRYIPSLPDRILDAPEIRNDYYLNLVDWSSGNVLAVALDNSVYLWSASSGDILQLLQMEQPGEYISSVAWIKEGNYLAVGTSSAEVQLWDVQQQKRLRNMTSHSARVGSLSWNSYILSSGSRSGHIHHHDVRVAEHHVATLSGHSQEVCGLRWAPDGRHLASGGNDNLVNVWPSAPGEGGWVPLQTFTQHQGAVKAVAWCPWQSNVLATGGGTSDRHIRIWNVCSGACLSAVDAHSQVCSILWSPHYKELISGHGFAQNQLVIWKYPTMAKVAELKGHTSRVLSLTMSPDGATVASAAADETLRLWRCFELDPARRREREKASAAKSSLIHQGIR
UniProt Q9Y6A4: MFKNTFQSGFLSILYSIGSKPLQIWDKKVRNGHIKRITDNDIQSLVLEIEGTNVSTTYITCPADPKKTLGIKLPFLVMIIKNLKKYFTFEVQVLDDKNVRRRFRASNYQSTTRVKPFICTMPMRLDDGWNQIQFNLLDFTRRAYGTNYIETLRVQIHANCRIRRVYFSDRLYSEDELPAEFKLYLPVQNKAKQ
UniProt P46527, whole entry, looked up: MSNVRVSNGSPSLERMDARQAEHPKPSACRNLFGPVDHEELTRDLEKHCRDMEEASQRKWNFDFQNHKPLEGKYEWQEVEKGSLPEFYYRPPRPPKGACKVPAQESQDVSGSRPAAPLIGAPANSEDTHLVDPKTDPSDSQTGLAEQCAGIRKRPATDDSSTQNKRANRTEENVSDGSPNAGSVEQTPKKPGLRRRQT
UniProt O94986: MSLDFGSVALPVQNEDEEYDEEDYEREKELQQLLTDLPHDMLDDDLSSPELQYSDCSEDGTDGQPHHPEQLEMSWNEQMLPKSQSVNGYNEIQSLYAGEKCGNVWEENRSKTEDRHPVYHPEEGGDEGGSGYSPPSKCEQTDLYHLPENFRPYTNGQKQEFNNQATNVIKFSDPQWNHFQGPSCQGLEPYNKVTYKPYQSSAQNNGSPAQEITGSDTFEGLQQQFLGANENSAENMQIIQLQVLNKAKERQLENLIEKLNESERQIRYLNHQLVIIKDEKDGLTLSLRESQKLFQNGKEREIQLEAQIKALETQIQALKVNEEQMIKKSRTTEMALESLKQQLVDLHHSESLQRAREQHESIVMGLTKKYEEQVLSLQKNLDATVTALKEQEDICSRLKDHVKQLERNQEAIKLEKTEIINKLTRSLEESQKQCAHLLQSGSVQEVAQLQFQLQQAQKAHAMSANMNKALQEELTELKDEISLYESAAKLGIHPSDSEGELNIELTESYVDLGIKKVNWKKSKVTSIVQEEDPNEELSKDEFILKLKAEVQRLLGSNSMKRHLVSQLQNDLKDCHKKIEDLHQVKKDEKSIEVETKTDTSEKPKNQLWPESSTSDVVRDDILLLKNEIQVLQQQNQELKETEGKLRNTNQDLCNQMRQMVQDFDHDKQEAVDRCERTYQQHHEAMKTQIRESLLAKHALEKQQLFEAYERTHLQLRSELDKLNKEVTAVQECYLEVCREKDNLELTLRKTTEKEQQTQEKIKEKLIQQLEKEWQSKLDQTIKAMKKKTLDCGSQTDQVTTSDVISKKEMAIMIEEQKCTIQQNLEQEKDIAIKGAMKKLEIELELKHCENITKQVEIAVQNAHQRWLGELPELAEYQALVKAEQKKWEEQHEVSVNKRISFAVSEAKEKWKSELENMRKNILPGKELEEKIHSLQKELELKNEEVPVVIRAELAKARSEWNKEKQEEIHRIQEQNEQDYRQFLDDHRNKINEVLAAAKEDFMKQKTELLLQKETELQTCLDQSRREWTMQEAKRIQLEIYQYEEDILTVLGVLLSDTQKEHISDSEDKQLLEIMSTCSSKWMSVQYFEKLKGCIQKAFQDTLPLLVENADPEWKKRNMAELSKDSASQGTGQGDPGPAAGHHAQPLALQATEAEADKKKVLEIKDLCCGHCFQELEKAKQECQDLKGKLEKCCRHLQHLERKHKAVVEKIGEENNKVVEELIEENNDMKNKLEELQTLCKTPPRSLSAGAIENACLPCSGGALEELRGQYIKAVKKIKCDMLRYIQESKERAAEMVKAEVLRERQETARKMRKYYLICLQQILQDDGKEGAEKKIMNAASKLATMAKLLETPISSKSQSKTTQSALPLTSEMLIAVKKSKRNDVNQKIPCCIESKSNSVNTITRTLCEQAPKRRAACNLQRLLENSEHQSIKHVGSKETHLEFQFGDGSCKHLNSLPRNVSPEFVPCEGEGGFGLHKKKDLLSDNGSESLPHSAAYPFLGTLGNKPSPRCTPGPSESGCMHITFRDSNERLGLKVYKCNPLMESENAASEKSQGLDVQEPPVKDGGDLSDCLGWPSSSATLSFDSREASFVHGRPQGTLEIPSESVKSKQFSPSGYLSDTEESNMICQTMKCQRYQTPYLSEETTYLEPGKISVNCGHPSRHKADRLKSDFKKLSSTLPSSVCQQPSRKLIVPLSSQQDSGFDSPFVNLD
UniProt Q7L3B6: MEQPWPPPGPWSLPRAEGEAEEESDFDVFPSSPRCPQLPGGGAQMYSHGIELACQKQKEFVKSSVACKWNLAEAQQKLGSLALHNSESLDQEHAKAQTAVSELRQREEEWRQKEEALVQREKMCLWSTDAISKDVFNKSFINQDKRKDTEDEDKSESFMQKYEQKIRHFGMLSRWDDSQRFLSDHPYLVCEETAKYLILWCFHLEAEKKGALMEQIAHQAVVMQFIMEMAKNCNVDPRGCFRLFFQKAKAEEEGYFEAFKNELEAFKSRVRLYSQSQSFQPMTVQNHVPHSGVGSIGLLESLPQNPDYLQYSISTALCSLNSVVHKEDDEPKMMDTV

Legend:
Experiment in all cases: log2 fold change, soluble protein after heating vs DMSO (PISA); higher = thermal stabilisation; K562 lysate, 10 uM; active = over 0.2 and 3.5 SD of the protein, either way, in both replicates (recomputed)
erlotinib = compound: C#Cc1cccc(Nc2ncnc3cc(OCCOC)c(OCCOC)cc23)c1 [erlotinib]
How it was run: (§1)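 The values are log-two fold changes in thermal stability compared with solvent controls and come from duplicates. They were obtained by TMTpro 16plex LC-MS/MS, with channel sums equalised, on the supernatant after 21,000xg for 90 min. That supernatant came from crude K562 extract at 1 mg/mL protein treated with 10 μM compound for 30 min, heated for 3 min across 48°C-58°C, pooled and brought to 0.5% NP-40 at 4°C.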

[1] = compound: C/C(=N\NC(=O)C1=CC(=CC=C1)S(=O)(=O)N2CCOCC2)/C3=C(C=CC(=C3)Cl)O
How it was run: as §1

[2] = compound: C1=CC(=CC=C1C2=NC3=C(N2)C=C(C=C3)C(=O)N)OC4=CC=C(C=C4)Cl
How it was run: as §1

[3] = compound: C1=CC2=C(C=CC(=C2)/C=C\3/C(=O)NC(=NCC4=CC=CS4)S3)N=C1
How it was run: as §1

[4] = compound: C1=CC2=NC=CN=C2C=C1/C=C/3\C(=O)NC(=O)S3
How it was run: as §1

[5] = compound: C1=CC=C(C=C1)C2=NC(=C(N2)C3=CC=NC=C3)C4=CC(=C(C=C4)Cl)O
How it was run: as §1

[6] = compound: C1=CC=C2C(=C1)C3=NNC4=CC=CC(=C43)C2=O
How it was run: as §1

[7] = compound: C1CCN(C1)C(=O)NC2=CC=CC(=C2)NC3=NC=C(C(=N3)NCCC4=CN=CN4)Br
How it was run: as §1

[8] = compound: C1CN(CCC1(CC2=CC=C(C=C2)Cl)N)C3=NC=NC4=C3C=CN4
How it was run: as §1

IRAK-1-4 Inhibitor I = compound: C1COCCN1CCN2C3=CC=CC=C3N=C2NC(=O)C4=CC(=CC=C4)[N+](=O)[O-] [IRAK-1-4 Inhibitor I]
How it was run: as §1

Measured: log2 fold change

CEP135 (UniProt Q66GS9)
inactive: erlotinib 0.034 | [1] -0.029 | [2] 0.065 | [3] -0.047 | [4] 0.031 | [5] 0.002 | [6] 0.024 | [7] -0.035 | [8] 0.042 | IRAK-1-4 Inhibitor I 0.02

CERS6 isoform 2 (UniProt Q6ZMG9)
inactive: erlotinib 0.079 | [1] -0.007 | [2] 0.013 | [3] 0.044 | [4] -0.014 | [5] -0.109 | [6] -0.037 | [7] -0.007 | [8] -0.094 | IRAK-1-4 Inhibitor I 0.066

CDCA3 (UniProt Q99618)
inactive: erlotinib -0.026 | [1] -0.05 | [2] 0.021 | [3] -0.04 | [4] -0.014 | [5] 0.002 | [6] 0.043 | [7] -0.011 | [8] -0.005 | IRAK-1-4 Inhibitor I 0.044

CDC37 (UniProt Q16543)
inactive: erlotinib -0.004 | [1] 0.027 | [2] 0.015 | [3] -0.025 | [4] -0.008 | [5] 0.032 | [6] 0.013 | [7] 0.025 | [8] -0.004 | IRAK-1-4 Inhibitor I 0.011

CENPU (UniProt Q71F23)
inactive: erlotinib 0.012 | [1] 0.009 | [2] 0.016 | [3] 0.098 | [4] -0.038 | [5] -0.029 | [6] 0.063 | [7] -0.009 | [8] -0.075 | IRAK-1-4 Inhibitor I -0.013

CDS2 (UniProt O95674)
active: IRAK-1-4 Inhibitor I 0.214
inactive: erlotinib -0.023 | [1] 0.004 | [2] -0.087 | [3] -0.008 | [4] -0.011 | [5] 0.079 | [6] -0.027 | [7] -0.056 | [8] 0.01

CHAC2 (UniProt Q8WUX2)
inactive: erlotinib 0.019 | [1] 0.097 | [2] 0.049 | [3] 0.022 | [4] -0.023 | [5] 0.055 | [6] -0.012 | [7] 0.032 | [8] 0.044 | IRAK-1-4 Inhibitor I -0.038

CDAN1 (UniProt Q8IWY9)
inactive: erlotinib 0.006 | [1] -0.01 | [2] 0.048 | [3] -0.025 | [4] -0.012 | [5] -0.04 | [6] -0.063 | [7] -0.001 | [8] 0 | IRAK-1-4 Inhibitor I 0.003

CDC73 (UniProt Q6P1J9)
inactive: erlotinib 0.033 | [1] -0.048 | [2] 0.022 | [3] 0.014 | [4] -0.047 | [5] 0.002 | [6] -0.032 | [7] -0.038 | [8] 0.016 | IRAK-1-4 Inhibitor I -0.038

CDC20 (UniProt Q12834)
inactive: erlotinib 0.017 | [1] -0.537 | [2] 0 | [3] 0.019 | [4] -0.094 | [5] 0.056 | [6] 0.106 | [7] -0.091 | [8] 0.071 | IRAK-1-4 Inhibitor I -0.001

CFAP20 (UniProt Q9Y6A4)
inactive: erlotinib -0.028 | [1] -0.043 | [2] 0.018 | [3] 0.018 | [4] 0.026 | [5] -0.044 | [6] 0.019 | [7] -0.016 | [8] 0.024 | IRAK-1-4 Inhibitor I -0.021

CDKN1B (UniProt P46527)
inactive: erlotinib -0.079 | [1] -0.067 | [2] 0.011 | [3] 0.012 | [4] 0.026 | [5] -0.038 | [6] 0.03 | [7] 0.045 | [8] 0.003 | IRAK-1-4 Inhibitor I -0.086

CFL2 (UniProt Q9Y281)
inactive: erlotinib 0.009 | [1] 0.017 | [2] 0.014 | [3] -0.026 | [4] 0.008 | [5] -0.01 | [6] 0.027 | [7] -0.044 | [8] 0.035 | IRAK-1-4 Inhibitor I 0.007

Two successive entries out of the list so far, for reference:
CDAN1 (UniProt Q8IWY9)
inactive: erlotinib 0.006 | [1] -0.01 | [2] 0.048 | [3] -0.025 | [4] -0.012 | [5] -0.04 | [6] -0.063 | [7] -0.001 | [8] 0 | IRAK-1-4 Inhibitor I 0.003

CDC73 (UniProt Q6P1J9)
inactive: erlotinib 0.033 | [1] -0.048 | [2] 0.022 | [3] 0.014 | [4] -0.047 | [5] 0.002 | [6] -0.032 | [7] -0.038 | [8] 0.016 | IRAK-1-4 Inhibitor I -0.038

Next records.

CEP152 (UniProt O94986)
inactive: erlotinib -0.011 | [1] -0.043 | [2] 0.142 | [3] -0.1 | [4] 0.139 | [5] 0.099 | [6] 0.123 | [7] -0.07 | [8] 0.073 | IRAK-1-4 Inhibitor I 0.086

CDC37L1 (UniProt Q7L3B6)
inactive: erlotinib 0.008 | [1] 0.034 | [2] -0.006 | [3] 0.032 | [4] 0.027 | [5] -0.014 | [6] -0.042 | [7] -0.013 | [8] -0.008 | IRAK-1-4 Inhibitor I -0.008
